Measurements reported in PubChem BioAssay AID743454 (Peter MacCallum Cancer Centre, 2014).
Here is an unselected part of about 18,000 reagents tested. In the full data, 450 (2.5%) are marked active. 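Single biological run; no consistent viability z cut-off exists, so the class columns, not z-scores, define the calls.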 Entries without a mark were called inactive.

- Assay: 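Genes whose loss kills vorinostat-resistant colon cancer cells under vorinostat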 (primary screen)
- System: human HCT116-VR colon cancer cells, selected for vorinostat resistance
- Knock-down reagent: siRNA pool against human genes, 40 nM siRNA pool
- Time to read-out: vorinostat for 24 h, read-out about 72 h after transfection
- Conditions: vorinostat at 2.5 µM final
- Measurement: 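Cell viability by CellTiter-Fluor and caspase 3/7 activity by luminescence, each scaled to mock wells per plate, duplicates averaged, then robust z-scored over all plates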
- Reading the numbers: viability robust z-score: higher = more viable cells than screen typical; caspase robust z-score: higher = more caspase 3/7 activity than screen typical
- Hit rule: 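a knock-down is a hit when classed RV1 or RV2 for lowered viability, or CA1 or CA2 for caspase activation; those lethal without drug were dropped; hits were retested singly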

With knock-down of MEX3B [SID134325357] the results were viability hit class no change; caspase hit class no change; viability robust z-score 0.63; caspase robust z-score 1.75. After knock-down of PHF1 [SID134315698] the results were viability hit class no change; caspase hit class no change; viability robust z-score -0.31; caspase robust z-score 0.01. Knock-down of ENOX1 [SID134324688] came out at: viability hit class no change; caspase hit class no change; viability robust z-score 0.12; caspase robust z-score -0.96. After knock-down of GTPBP3 [SID134319023], the screen gave viability hit class no change; caspase hit class no change; viability robust z-score 1.06; caspase robust z-score -0.48. After knock-down of EEF1AKMT2 [SID134330000], the record shows viability hit class no change; caspase hit class no change; viability robust z-score -0.4; caspase robust z-score -1.14. After knock-down of IL22RA1 [SID134312907], the record shows viability hit class no change; caspase hit class no change; viability robust z-score -0.25; caspase robust z-score -0.75.

Knock-down of OR2B11 [SID152154110] came out at: viability hit class no change; caspase hit class no change; viability robust z-score -1.24; caspase robust z-score 0.26. Knock-down of DLD [SID152155454] came out at: viability hit class no change; caspase hit class no change; viability robust z-score 0.62; caspase robust z-score 1.17. With knock-down of GAS1 [SID134315988], the record shows viability hit class no change; caspase hit class no change; viability robust z-score 1.22; caspase robust z-score 0.83. Silencing of CD83 [SID152152861] came out at: viability hit class no change; caspase hit class no change; viability robust z-score 2.59; caspase robust z-score 0.64. Depletion of NCR3 [SID134320868] gave: viability hit class no change; caspase hit class no change; viability robust z-score 0.1; caspase robust z-score 0.39. After knock-down of ITGB6 [SID134312945] the results were viability hit class no change; caspase hit class no change; viability robust z-score -0.58; caspase robust z-score 1.55.

Silencing of PRKCZ [SID56478675] resulted in: viability hit class no change; caspase hit class no change; viability robust z-score -1.4; caspase robust z-score -0.99. ZNF358 [SID152154924] gave viability hit class no change; caspase hit class no change; viability robust z-score -0.16; caspase robust z-score 0.92.
